Some of the results follow.
Key:
Experiment in all cases: glycan array binding signal (z-score within array); higher = stronger binding
Conditions in all cases: glycan notation: IUPAC condensed, linker removed
[1] = target: Neu5Ac(a2-3)Gal(b1-4)GlcNAc
Outline: (§1)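 From the Consortium for Functional Glycomics database, 3228 arrays were curated, keeping only those whose protein sequence was available. Binding is given as a within-array Z-score averaged across arrays sharing a protein sequence and across linkers. Negative Z-scores can be read as non-binding.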

[2] = target: Neu5Ac(a2-3)Gal(b1-4)GlcNAc(b1-2)Man(a1-3)[GlcNAc(b1-2)Man(b1-4)GlcNAc(b1-2)Man(a1-6)]Man(b1-4)GlcNAc(b1-4)GlcNAc
Outline: as §1

[3] = target: Neu5Ac(a2-3)Gal(b1-4)GlcNAc(b1-2)Man(a1-3)[Neu5Ac(a2-6)Gal(b1-4)GlcNAc(b1-2)Man(a1-6)]Man(b1-4)GlcNAc(b1-4)GlcNAc
Outline: as §1

[4] = target: Neu5Ac(a2-3)Gal(b1-4)GlcNAc(b1-3)Gal(b1-3)GlcNAc
Outline: as §1

[5] = target: Neu5Ac(a2-3)Gal(b1-4)GlcNAc(b1-3)Gal(b1-4)GlcNAc
Outline: as §1

[6] = target: Neu5Ac(a2-3)Gal(b1-4)GlcNAc(b1-3)Gal(b1-4)GlcNAc(b1-3)Gal(b1-4)GlcNAc
Outline: as §1

[7] = target: Neu5Ac(a2-3)Gal(b1-4)GlcNAc(b1-3)Gal(b1-4)[Fuc(a1-3)]GlcNAc
Outline: as §1

[8] = target: Neu5Ac(a2-3)Gal(b1-4)GlcNAc(b1-3)GalNAc
Outline: as §1

[9] = target: Neu5Ac(a2-3)Gal(b1-4)GlcNAc(b1-6)[Gal(b1-3)]GalNAc
Outline: as §1

[10] = target: Neu5Ac(a2-3)Gal(b1-4)GlcNAc(b1-6)[Neu5Ac(a2-3)Gal(b1-3)]GalNAc
Outline: as §1

[11] = target: Neu5Ac(a2-3)Gal(b1-4)GlcNAc6S
Outline: as §1

[12] = target: Neu5Ac(a2-3)Gal(b1-4)[Fuc(a1-3)]GlcNAc
Outline: as §1

[13] = target: Neu5Ac(a2-3)Gal(b1-4)[Fuc(a1-3)]GlcNAc(b1-3)Gal
Outline: as §1

[14] = target: Neu5Ac(a2-3)Gal(b1-4)[Fuc(a1-3)]GlcNAc(b1-3)Gal(b1-4)GlcNAc
Outline: as §1

[15] = target: Neu5Ac(a2-3)Gal(b1-4)[Fuc(a1-3)]GlcNAc(b1-3)Gal(b1-4)[Fuc(a1-3)]GlcNAc(b1-3)Gal(b1-4)[Fuc(a1-3)]GlcNAc
Outline: as §1

[16] = target: Neu5Ac(a2-3)Gal(b1-4)[Fuc(a1-3)]GlcNAc(b1-3)GalNAc
Outline: as §1

[17] = target: Neu5Ac(a2-3)Gal(b1-4)[Fuc(a1-3)]GlcNAc(b1-6)[Gal(b1-3)]GalNAc
Outline: as §1

[18] = target: Neu5Ac(a2-3)Gal(b1-4)[Fuc(a1-3)]GlcNAc(b1-6)[Neu5Ac(a2-3)Gal(b1-3)]GalNAc
Outline: as §1

[19] = target: Neu5Ac(a2-3)Gal(b1-4)[Fuc(a1-3)]GlcNAc6S
Outline: as §1

[20] = target: Neu5Ac(a2-3)Gal6S(b1-4)GlcNAc
Outline: as §1

[21] = target: Neu5Ac(a2-3)Gal6S(b1-4)[Fuc(a1-3)]GlcNAc
Outline: as §1

Neu5Ac(a2-3)GalNAc = target: Neu5Ac(a2-3)GalNAc
Outline: as §1

[22] = target: Neu5Ac(a2-3)GalNAc(b1-4)GlcNAc
Outline: as §1

[23] = target: Neu5Ac(a2-3)[GalNAc(b1-4)]Gal(b1-4)Glc
Outline: as §1

[24] = target: Neu5Ac(a2-3)[GalNAc(b1-4)]Gal(b1-4)GlcNAc
Outline: as §1

[25] = target: Neu5Ac(a2-3)[GalNAc(b1-4)]Gal(b1-4)GlcNAc(b1-3)GalNAc
Outline: as §1

[26] = target: Neu5Ac(a2-3)[Neu5Ac(a2-6)]GalNAc
Outline: as §1

Neu5Ac(a2-6)Gal = target: Neu5Ac(a2-6)Gal
Outline: as §1

Neu5Ac(a2-6)Gal(b1-4)Glc = target: Neu5Ac(a2-6)Gal(b1-4)Glc
Outline: as §1

[27] = target: Neu5Ac(a2-6)Gal(b1-4)GlcNAc
Outline: as §1

[28] = target: Neu5Ac(a2-6)Gal(b1-4)GlcNAc(b1-2)Man(a1-3)Man(b1-4)GlcNAc(b1-4)GlcNAc
Outline: as §1

[29] = target: Neu5Ac(a2-6)Gal(b1-4)GlcNAc(b1-2)Man(a1-3)[Gal(b1-4)GlcNAc(b1-2)Man(a1-6)]Man(b1-4)GlcNAc(b1-4)GlcNAc
Outline: as §1

[30] = target: Neu5Ac(a2-6)Gal(b1-4)GlcNAc(b1-2)Man(a1-3)[GlcNAc(b1-2)Man(a1-6)]Man(b1-4)GlcNAc(b1-4)GlcNAc
Outline: as §1

[31] = target: Neu5Ac(a2-6)Gal(b1-4)GlcNAc(b1-2)Man(a1-3)[GlcNAc(b1-2)Man(b1-4)GlcNAc(b1-2)Man(a1-6)]Man(b1-4)GlcNAc(b1-4)GlcNAc
Outline: as §1

[32] = target: Neu5Ac(a2-6)Gal(b1-4)GlcNAc(b1-2)Man(a1-3)[Man(a1-6)]Man(b1-4)GlcNAc(b1-4)GlcNAc
Outline: as §1

B1: AcfC (Vibrio cholerae), Q57410 (protein)
chain: MKSKNRFLLISLLSFSTSVFADVNLYGPGGPHVPLIKVAESFEKSQSKRVNITFGPQATWNDKAKKNADILFGASEHSALAIAEGHSERFSKFNIHPVFMREAIILVKKGNPKNIKGMADLLKPGIGIVVNDGAGVSNTSGTAVWEDSVGRMKNVEKLQAFRSNIHVFAPNSGSARKAFVDGEDIDAWITWVDWAIANPTIGDMVRMEDEYRIYRDFNVVLAKNPSSEAIDFFDYLTKSKDAEAIFQHYGWFK
glycan array binding signal (z-score) [1]: -0.54 | glycan array binding signal (z-score) [2]: 0.125 | glycan array binding signal (z-score) [3]: -0.901 | glycan array binding signal (z-score) [4]: -1.02 | glycan array binding signal (z-score) [5]: -0.624 | glycan array binding signal (z-score) [6]: 0.074 | glycan array binding signal (z-score) [7]: -0.682 | glycan array binding signal (z-score) [8]: -0.182 | glycan array binding signal (z-score) [9]: 0.034 | glycan array binding signal (z-score) [10]: -1.98 | glycan array binding signal (z-score) [11]: 0.582 | glycan array binding signal (z-score) [12]: -1.18 | glycan array binding signal (z-score) [13]: -1.14 | glycan array binding signal (z-score) [14]: -0.127 | glycan array binding signal (z-score) [15]: -0.219 | glycan array binding signal (z-score) [16]: 6.97 | glycan array binding signal (z-score) [17]: -0.267 | glycan array binding signal (z-score) [18]: -0.381 | glycan array binding signal (z-score) [19]: -1.09 | glycan array binding signal (z-score) [20]: 0.355 | glycan array binding signal (z-score) [21]: -0.261 | glycan array binding signal (z-score) (Neu5Ac(a2-3)GalNAc): -3.15 | glycan array binding signal (z-score) [22]: -1.23 | glycan array binding signal (z-score) [23]: -1.07 | glycan array binding signal (z-score) [24]: -0.717 | glycan array binding signal (z-score) [25]: 0.126 | glycan array binding signal (z-score) [26]: -0.27 | glycan array binding signal (z-score) (Neu5Ac(a2-6)Gal): 2.2 | glycan array binding signal (z-score) (Neu5Ac(a2-6)Gal(b1-4)Glc): 0.883 | glycan array binding signal (z-score) [27]: 0.03 | glycan array binding signal (z-score) [28]: -1.47 | glycan array binding signal (z-score) [29]: 1.8 | glycan array binding signal (z-score) [30]: -0.405 | glycan array binding signal (z-score) [31]: -0.611 | glycan array binding signal (z-score) [32]: -0.009

Reference: the supplement of paper PMC8728848
